These are yes or no findings as the source states them, for the method shown. Binding seen in cells or lysates may run through a third protein. Some entries that bind do so weakly or less than the wild type.
Molecular target: T1, DROSHA (human (endogenous in K562)), Q9NRR4
T1 chain: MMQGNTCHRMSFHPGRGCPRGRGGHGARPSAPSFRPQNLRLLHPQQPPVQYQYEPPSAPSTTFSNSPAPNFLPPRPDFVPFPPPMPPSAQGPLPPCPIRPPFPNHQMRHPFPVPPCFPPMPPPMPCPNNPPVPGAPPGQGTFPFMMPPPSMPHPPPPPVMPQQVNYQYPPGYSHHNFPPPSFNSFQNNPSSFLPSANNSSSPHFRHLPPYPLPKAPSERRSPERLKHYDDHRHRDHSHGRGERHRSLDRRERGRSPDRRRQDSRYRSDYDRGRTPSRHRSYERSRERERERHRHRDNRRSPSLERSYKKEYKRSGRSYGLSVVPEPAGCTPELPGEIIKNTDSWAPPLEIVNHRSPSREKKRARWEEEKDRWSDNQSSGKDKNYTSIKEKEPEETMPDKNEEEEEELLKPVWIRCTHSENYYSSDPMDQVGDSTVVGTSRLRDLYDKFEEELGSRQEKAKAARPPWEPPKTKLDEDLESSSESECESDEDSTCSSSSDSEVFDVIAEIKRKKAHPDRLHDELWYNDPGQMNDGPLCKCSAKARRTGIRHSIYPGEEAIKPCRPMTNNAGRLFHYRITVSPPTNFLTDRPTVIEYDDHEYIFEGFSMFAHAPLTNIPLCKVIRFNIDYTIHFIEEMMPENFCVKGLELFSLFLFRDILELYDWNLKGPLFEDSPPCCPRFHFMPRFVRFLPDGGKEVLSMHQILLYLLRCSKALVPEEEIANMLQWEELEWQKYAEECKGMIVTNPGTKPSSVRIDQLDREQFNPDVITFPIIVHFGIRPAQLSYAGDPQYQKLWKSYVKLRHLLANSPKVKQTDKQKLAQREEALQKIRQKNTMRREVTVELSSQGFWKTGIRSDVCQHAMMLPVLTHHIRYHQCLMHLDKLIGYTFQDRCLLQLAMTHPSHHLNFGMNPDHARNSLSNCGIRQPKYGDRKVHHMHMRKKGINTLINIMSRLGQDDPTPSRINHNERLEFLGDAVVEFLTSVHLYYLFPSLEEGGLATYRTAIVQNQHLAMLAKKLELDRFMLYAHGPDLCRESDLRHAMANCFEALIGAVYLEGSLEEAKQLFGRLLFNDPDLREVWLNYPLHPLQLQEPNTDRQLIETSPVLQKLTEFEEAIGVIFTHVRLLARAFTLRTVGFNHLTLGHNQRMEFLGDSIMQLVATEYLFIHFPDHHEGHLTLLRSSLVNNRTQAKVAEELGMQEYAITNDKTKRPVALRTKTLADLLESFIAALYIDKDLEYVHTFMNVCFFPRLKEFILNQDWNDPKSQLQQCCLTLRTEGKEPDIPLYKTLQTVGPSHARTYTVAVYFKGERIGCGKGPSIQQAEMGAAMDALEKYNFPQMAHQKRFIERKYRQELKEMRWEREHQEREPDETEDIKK
Test: co-IP; K562 lysate (20 mM Tris-HCl pH 8.0, 125 mM NaCl, 1% NP-40, 2 mM EDTA); IP with DROSHA antibody overnight at 4 °C, Dynabeads Protein G; rabbit isotype IgG as control; with and without RNase A treatment; blot for ADAR1 and DROSHA
Settings: remark: other sources report otherwise

B1: ADAR1, P55265 1-1226 (protein)
chain: MNPRQGYSLSGYYTHPFQGYEHRQLRYQQPGPGSSPSSFLLKQIEFLKGQLPEAPVIGKQTPSLPPSLPGLRPRFPVLLASSTRGRQVDIRGVPRGVHLRSQGLQRGFQHPSPRGRSLPQRGVDCLSSHFQELSIYQDQEQRILKFLEELGEGKATTAHDLSGKLGTPKKEINRVLYSLAKKGKLQKEAGTPPLWKIAVSTQAWNQHSGVVRPDGHSQGAPNSDPSLEPEDRNSTSVSEDLLEPFIAVSAQAWNQHSGVVRPDSHSQGSPNSDPGLEPEDSNSTSALEDPLEFLDMAEIKEKICDYLFNVSDSSALNLAKNIGLTKARDINAVLIDMERQGDVYRQGTTPPIWHLTDKKRERMQIKRNTNSVPETAPAAIPETKRNAEFLTCNIPTSNASNNMVTTEKVENGQEPVIKLENRQEARPEPARLKPPVHYNGPSKAGYVDFENGQWATDDIPDDLNSIRAAPGEFRAIMEMPSFYSHGLPRCSPYKKLTECQLKNPISGLLEYAQFASQTCEFNMIEQSGPPHEPRFKFQVVINGREFPPAEAGSKKVAKQDAAMKAMTILLEEAKAKDSGKSEESSHYSTEKESEKTAESQTPTPSATSFFSGKSPVTTLLECMHKLGNSCEFRLLSKEGPAHEPKFQYCVAVGAQTFPSVSAPSKKVAKQMAAEEAMKALHGEATNSMASDNQPEGMISESLDNLESMMPNKVRKIGELVRYLNTNPVGGLLEYARSHGFAAEFKLVDQSGPPHEPKFVYQAKVGGRWFPAVCAHSKKQGKQEAADAALRVLIGENEKAERMGFTEVTPVTGASLRRTMLLLSRSPEAQPKTLPLTGSTFHDQIAMLSHRCFNTLTNSFQPSLLGRKILAAIIMKKDSEDMGVVVSLGTGNRCVKGDSLSLKGETVNDCHAEIISRRGFIRFLYSELMKYNSQTAKDSIFEPAKGGEKLQIKKTVSFHLYISTAPCGDGALFDKSCSDRAMESTESRHYPVFENPKQGKLRTKVENGEGTIPVESSDIVPTWDGIRLGERLRTMSCSDKILRWNVLGLQGALLTHFLQPIYLKSVTLGYLFSQGHLTRAICCRVTRDGSAFEDGLRHPFIVNHPKVGRVSIYDSKRQSGKTKETSVNWCLADGYDLEILDGTRGTVDGPRNELSRVSKKNIFLLFKKLCSFRYRRDLLRLSYGEAKKAARDYETAKNYFKKGLKDMGYGNWISKPQEEKNFYLCPV
  binding: binds
